The record followed here is PMC5830631.

Amino acid sequences for entries named in this document (tags omitted). A change or cut given only in a name is not applied to a line headed by its entry. Residues count along the entry.
UniProt Q86T13: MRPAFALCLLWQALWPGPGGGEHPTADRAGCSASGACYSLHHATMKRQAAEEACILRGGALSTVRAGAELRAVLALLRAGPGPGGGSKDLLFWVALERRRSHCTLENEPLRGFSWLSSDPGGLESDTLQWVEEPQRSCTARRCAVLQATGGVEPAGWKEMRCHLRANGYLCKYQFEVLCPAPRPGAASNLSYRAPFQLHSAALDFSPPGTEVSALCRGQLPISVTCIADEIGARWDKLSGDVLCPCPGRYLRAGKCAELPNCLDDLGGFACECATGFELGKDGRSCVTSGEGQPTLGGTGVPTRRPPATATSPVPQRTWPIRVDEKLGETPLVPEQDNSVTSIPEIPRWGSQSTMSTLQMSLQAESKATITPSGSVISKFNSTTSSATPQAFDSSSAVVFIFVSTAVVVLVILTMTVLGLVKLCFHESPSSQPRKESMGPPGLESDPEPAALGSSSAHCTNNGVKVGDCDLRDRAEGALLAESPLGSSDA
extracellular domain of hCLEC14a: residues 22-397 of Q86T13

No constants are given. Whether binding was seen depends on the method and setting. Some binding calls cover weakened binding; strength is not graded here.

The experiment has as its target extracellular domain of hCLEC14a (human) (UniProt Q86T13). Briefly: ELISA; 0.625 ug hCLEC14a-ECD coated per well; 1 ug hCLEC14a-CTLD-Fc-HRP incubated in the presence or absence of increasing concentrations of deglyco C1 IgG, 2 h, room temperature; TMB, OD 450 nm; both purified.

For “HRP-conjugated hCLEC14a-CTLD-Fc (from UniProt Q86T13 33-173) (Fc fusion)”, the binding result was “binds”.
